From PubChem BioAssay AID2685 (National Center for Advancing Translational Sciences (NCATS), 2010)
Among all 320,000 compounds or so, about 2,100 (0.66%) were called active. Inconclusive results, whose numbers are uncertain, are shown with a selection of clear calls. Calls follow the shape of the dose curve; as a rule, active = well fitted inhibition curve with a large enough effect in the signal ratio, with a control signal flat (not every such curve was filed as active); inconclusive = small, poorly fitted or top-dose-only effect, or effect the other way, or a change in a side signal; inactive = flat fitted curve, though single readings scatter; the % refers to the signal ratio. Where the call is inconclusive, the potency comes from a doubtful curve fit.

Assay: qHTS Assay for Lipid Storage Modulators in Drosophila S3 Cells
Settings: BODIPY lipid droplet fluorescence, 18-24 h, cells fed with added oleic acid; lipid storage change, negative = inhibition: at 46.1 µM (top of the series) unless noted
In short: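 Drosophila S3 cells loaded with oleic acid (400 uM, as added) and compounds at several concentrations; lipid droplets imaged by 488-nm laser-scanning cytometry, 500–530 nm intensity and object ratio to cell channel. Percent activity normalized to 20 uM Triacsin C.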
% is scaled to controls: 0 for no effect and ±100 for the full control effect; potency is read from the fitted curve at half-maximal effect.

| Structure (SMILES) | lipid storage change, negative = inhibition | Potency |
| --- | --- | --- |
| CC(C)(C)NC(=O)CN(Cc1ccc2c(c1)OCO2)C(=O)CCC(=O)Nc1nccs1 | inconclusive: 12.3% |  |
| O=C(CSc1ncnc2sccc12)NCc1ccc2c(c1)OCO2 | inconclusive: 100% |  |
| c1ccc2c(Nc3nnc(-c4ccncc4)s3)cccc2c1 | inconclusive: -13.2% |  |
| COc1ccc2[nH]cc(C(=O)CN3CCN(C/C=C/c4ccccc4)CC3)c2c1 | inconclusive: -32.9% |  |
| CCOc1ccccc1NC(C)C(=O)Nc1cc(C(F)(F)F)ccc1N1CCOCC1 (stereo not given) | inconclusive: -2.53% |  |
| CCOc1ccc(NC(=O)CN(C)C(=O)/C=C/c2ccco2)cc1OCC | inconclusive: 58.7% |  |
| Cc1c(C(=O)N2CCN(Cc3ccc4c(c3)OCO4)CC2)sc2ncnc(N3CCN(c4ccccc4)CC3)c12 | inconclusive: 30.2% |  |
| COC(=O)c1ccc(C2C(C(=O)c3ccc(C)o3)=C(O)C(=O)N2c2cc(C)on2)cc1 (stereo not given) |  | inconclusive: 23.1 µM [activator, partial curve] |
| Cc1ccc(CCNC(=O)C2CCCN(S(=O)(=O)c3c(C)noc3/C=C/N(C)C)C2)cc1 (stereo not given) | inconclusive: -4.64% |  |
| Cc1csc(NC(=O)CCn2c(=O)sc3ccccc32)n1 | inconclusive: -12.8% |  |
| Cc1ccc(S(=O)(=O)N2CCN(c3nc(C(C)C)c4c(c3C#N)CC(C)(C)OC4)CC2)cc1 |  | inconclusive: 3.26 µM [activator, single point] |
| Cc1nc(N2CCCCCC2)c2ccccc2n1 |  | inconclusive: 29.1 µM [activator, single point] |
| COc1ccccc1C(=O)COC(=O)c1ccc(Cl)nc1 | inactive |  |
| O=C(CCNC(=O)c1ccco1)Nc1ccc(SC(F)F)cc1 | inconclusive: -27.6% |  |
| CN1C(=O)C(CC(=O)Nc2ccc(F)cc2)N(Cc2cccs2)C1=S (stereo not given) | inconclusive: 4.77% |  |
| CC(C)c1ccc(NC(=O)NC(C)c2ccc3c(c2)OCO3)cc1 (stereo not given) | inconclusive: 7.48% |  |
| CCOc1ccccc1N(CC(=O)N(C)Cc1ccccc1)S(=O)(=O)c1ccccc1 |  | inconclusive: 2.91 µM [falling, single point] |
| COc1ccc(NC(=O)CN(c2cc(C)cc(C)c2)S(=O)(=O)c2c(C)n[nH]c2C)cc1 |  | inconclusive: 9.2 µM [activator, partial curve, poor fit] |
| FC(F)(F)c1cc(-c2cccs2)nc2nc(N3CCOCC3)sc12 | inconclusive: 18% |  |
| CC1(C)CC(=O)C2=C(C1)N(CCN1CCOCC1)C1=C(C(=O)CC(C)(C)C1)C2c1cccc(Cl)c1 | inconclusive: -7.96% |  |
| Cn1c(CNC(=O)OC(C)(C)C)nnc1SCc1c(Cl)cccc1Cl | inactive |  |
| O=C(O)c1ccc(N2CCCCC2)cc1O | inconclusive: 9.76% |  |
| CC(=O)c1cccc(N2Cc3ccccc3C2=NC(=O)CCl)c1 | inconclusive: -43.5% [cytotoxic] [at 0.00295 µM] |  |
| CC1CCc2sc(C(=O)NNC(=S)NC3CC3)cc2C1 (stereo not given) |  | inconclusive: 0.731 µM [falling, full curve] |
| CC1(c2ccc3ccccc3c2)NC(=O)N(CC(=O)O)C1=O (stereo not given) | inconclusive: 29.2% |  |

Reprinted at random: 2 entries already listed.

| Structure (SMILES) | lipid storage change, negative = inhibition | Potency |
| --- | --- | --- |
| CC(C)c1ccc(NC(=O)NC(C)c2ccc3c(c2)OCO3)cc1 (stereo not given) | inconclusive: 7.48% |  |
| CC1(C)CC(=O)C2=C(C1)N(CCN1CCOCC1)C1=C(C(=O)CC(C)(C)C1)C2c1cccc(Cl)c1 | inconclusive: -7.96% |  |

More structures follow.

| Structure (SMILES) | lipid storage change, negative = inhibition | Potency |
| --- | --- | --- |
| CC1(C)Cc2c(sc3nc(=S)[nH]c(N)c23)CO1 | inconclusive: -69% |  |
| COc1cc(C)ccc1OCCOCCOc1ccccc1[N+](=O)[O-] | inconclusive: 6.05% |  |
| Cc1c(NC(=O)C2CCCN2S(=O)(=O)c2ccc(Cl)cc2)c(=O)n(-c2ccccc2)n1C (stereo not given) | inconclusive: -32% |  |
| CCN(C(=O)CSc1ncccc1C(=O)O)C1CCCCC1 | inconclusive: -19.5% |  |
| CC1=CCC2C(=O)N(C(C)c3ccccc3)C(=O)C2C1 (stereo not given) | inconclusive: -193% |  |
| Nc1ccc(O)c(-c2nc3ccccc3s2)c1 | inconclusive: 24% |  |
| CCOc1ccccc1C(=O)NCC(=O)NNC(=O)c1cccc(S(=O)(=O)Nc2ccc(OC)cc2)c1 | inconclusive: 19.7% |  |
| COc1ccc(OC)c(C2N(c3cc(C)on3)C(=O)C3CCCN32)c1 (stereo not given) | inconclusive: 11.7% |  |
| CC(=O)c1sc(NC(=O)CCS(=O)(=O)c2ccc(C)cc2)nc1C | inconclusive: -89.8% |  |
| CC(C)NC(=O)NC(=O)COC(=O)c1cccc(S(=O)(=O)N2CCCCC2)c1 | inconclusive: -9.13% |  |
| CC1=C(C)CC(C(=O)Nc2cccc([N+](=O)[O-])c2)C(C(=O)O)C1 (stereo not given) | inconclusive: 21.6% |  |
| COc1ccc(S(=O)(=O)Cc2ccc(C(=O)NCc3ccccc3)o2)cc1 |  | inconclusive: 29.1 µM [falling, single point] |
| O=C(NC1CCCCC1)C1COc2ccccc2O1 (stereo not given) | inconclusive: 15.1% |  |
| Cn1c(=O)c2c(ncn2CC(=O)OCC(=O)NC2CCCc3ccccc32)n(C)c1=O (stereo not given) | inconclusive: 14.6% |  |
| CCOC(=O)C1CCN(C(c2cccc(F)c2)c2sc3nc(C)nn3c2O)CC1 (stereo not given) | inactive |  |
| CCc1noc(C)c1C(=O)N(C)CC(=O)Nc1ccccc1C(F)(F)F | inconclusive |  |
| Cc1ccc(-c2cc(N)n(-c3ccc(C)cc3)n2)cc1 | inconclusive: 86.4% |  |
| CCOc1c2ccccc2nn1CCO |  | inconclusive: 16.4 µM [activator, single point] |
| Cn1cnnc1SCC(=O)Nc1ccc2nc(SCc3ccccc3)sc2c1 | inconclusive: 3% |  |
| Cc1ccc(C)c(N(CC(=O)NCc2ccc3c(c2)OCO3)C(=O)CCC(=O)Nc2ccccn2)c1 | inconclusive: 58.1% |  |
| CN(C)CCSc1nc(O)c(-c2ccccc2)c(=O)n1-c1ccccc1 | inconclusive: -18.8% |  |
| S=C1Cc2ccccc2N1 |  | inconclusive: 5.8 µM [cytotoxic, full curve] |
| O=S(=O)(NCC1CCN(Cc2ccccc2)CC1)c1ccccc1C(F)(F)F |  | inconclusive: 25.9 µM [activator, single point] |
| Cc1ccc(O)c(CCc2ccccc2)n1 |  | inconclusive: 29.1 µM [falling, single point] |
| C#CCNC(=O)C1=C[C@H](c2csc3ccccc23)[C@@H](CCCO)[C@H](OCC)O1 |  | inconclusive: 32.6 µM [falling, partial curve, poor fit] |
